Measured values published in paper doi:10.1101/2021.08.04.455032.

Protein sequences, listed by entry. Tags and fused reporters are not part of them. Lines headed by an entry give the natural chain unless they say otherwise; changes in a name come on top.
UniProt Q8IYS0: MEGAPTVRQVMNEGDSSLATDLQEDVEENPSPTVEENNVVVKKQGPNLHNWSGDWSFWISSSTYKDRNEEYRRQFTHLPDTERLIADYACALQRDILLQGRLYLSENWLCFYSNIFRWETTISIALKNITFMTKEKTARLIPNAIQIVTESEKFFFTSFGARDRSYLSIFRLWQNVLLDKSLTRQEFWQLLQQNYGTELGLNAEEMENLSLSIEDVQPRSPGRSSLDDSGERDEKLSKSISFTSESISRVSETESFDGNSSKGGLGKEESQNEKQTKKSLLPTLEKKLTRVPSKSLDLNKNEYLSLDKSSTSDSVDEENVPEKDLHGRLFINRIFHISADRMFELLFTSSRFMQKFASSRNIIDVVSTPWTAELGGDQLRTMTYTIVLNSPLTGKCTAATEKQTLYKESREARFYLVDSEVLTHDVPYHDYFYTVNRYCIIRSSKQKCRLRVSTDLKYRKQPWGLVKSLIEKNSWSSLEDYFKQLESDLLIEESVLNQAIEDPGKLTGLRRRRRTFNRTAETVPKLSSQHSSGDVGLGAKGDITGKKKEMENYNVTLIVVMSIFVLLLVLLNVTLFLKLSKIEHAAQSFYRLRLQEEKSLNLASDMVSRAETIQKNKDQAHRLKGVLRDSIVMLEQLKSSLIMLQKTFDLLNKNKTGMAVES
UniProt P21796: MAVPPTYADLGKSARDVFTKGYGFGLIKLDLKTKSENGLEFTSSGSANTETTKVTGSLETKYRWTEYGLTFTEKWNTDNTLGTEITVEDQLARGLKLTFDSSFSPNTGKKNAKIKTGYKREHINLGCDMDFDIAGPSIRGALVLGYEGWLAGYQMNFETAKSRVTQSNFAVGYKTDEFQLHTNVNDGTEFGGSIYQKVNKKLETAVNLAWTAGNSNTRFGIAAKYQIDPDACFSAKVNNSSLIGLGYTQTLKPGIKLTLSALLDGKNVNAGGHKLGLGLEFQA

Tests used:
GRAMD1C-EGFP = GRAMD1C-EGFP (UniProt Q8IYS0); assay: affinity purification with mass spectrometry
GRAMD1C(ΔGRAM)-EGFP = GRAMD1C(ΔGRAM)-EGFP (UniProt Q8IYS0); assay: affinity purification with mass spectrometry

binding (GRAMD1C-EGFP): binds | binding (GRAMD1C(ΔGRAM)-EGFP): no binding
Substance: VDAC1 (from UniProt P21796 1-283)

These are yes or no findings as the source states them, for the method shown. In cells and extracts the contact can be indirect. A yes stands for co-enrichment or nearness to the bait. Other partners may have been found. For some assays here: No binding means not detected with the bait.
